From the supplement of paper PMC10689618
Some of the results follow. Many values rest on one well or one pass, so single values are uncertain.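 Primary human fetal astrocytes engulfed labelled rat cortical synaptosomes, measured as a red/green ratio corrected for calcein live-cell signal and scaled to the plate median. Toxicity meant calcein falling over 30%; decreased phagocytosis meant below 70% of median above 5 µM.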

What was measured:
Human fetal astrocytes [1] = test: loss of total cells relative to no-compound high-control median (toxicity); higher = more toxic (fewer cells); conditions: 24 h
Human fetal astrocytes [2] = test: synaptosome phagocytosis (pHrodo/calcein intensity ratio) relative to plate median of data wells; higher = more phagocytosis; conditions: 24 h

| SMILES | loss of total cells (Human fetal astrocytes [1]; 1.39 µM) [%] | loss of total cells (Human fetal astrocytes [1]; 2.78 µM) [%] | loss of total cells (Human fetal astrocytes [1]; 5.56 µM) [%] | loss of total cells (Human fetal astrocytes [1]; 11.11 µM) [%] | loss of total cells (Human fetal astrocytes [1]; 22.22 µM) [%] | synaptosome phagocytosis (Human fetal astrocytes [2]; 1.39 µM) [%] | synaptosome phagocytosis (Human fetal astrocytes [2]; 2.78 µM) [%] | synaptosome phagocytosis (Human fetal astrocytes [2]; 5.56 µM) [%] | synaptosome phagocytosis (Human fetal astrocytes [2]; 11.11 µM) [%] | synaptosome phagocytosis (Human fetal astrocytes [2]; 22.22 µM) [%] |
| --- | --- | --- | --- | --- | --- | --- | --- | --- | --- | --- |
| Cn1c(=O)c2nc(C3CCCC3)[nH]c2n(C)c1=O | 11.2 | 10.5 | 10.1 | -4.6 | 18.9 | 110 | 130 | 96.8 | 87 | 128 |
| CC(Oc1ccccc1)C(=O)N[C@@H]1C(=O)N2[C@@H]1SC(C)(C)[C@@H]2C(=O)O (stereo not given in full) | -8.6 | -47.8 | -36.2 | -15.9 | 34.3 | 115 | 121 | 138 | 98.9 | 140 |
| COc1ccc(-c2coc3cc(O)ccc3c2=O)c(O)c1O | -7.6 | -8.6 | 24.4 | 35.5 | 17.4 | 110 | 101 | 98 | 122 | 75.5 |
| Cc1cc(=O)oc2cc(O)c(O)cc12 | -40.2 | -12.6 | -24.9 | -0.7 | 8.1 | 98.5 | 90.4 | 84.2 | 104 | 59.1 |
| C1N2CN3CN1CN(C2)C3 | -8 | -4.4 | -5.6 | -1.4 | -20.4 | 106 | 96.6 | 86 | 102 | 81.3 |
| Nc1nc(N)c2nc(-c3ccccc3)c(N)nc2n1 [Triamterene] | -8.6 | -13.9 | -2.8 | -14.7 | 14.3 | 111 | 115 | 124 | 95.3 | 118 |
| O=c1c(O)c(-c2ccccc2)oc2ccccc12 | -21.3 | -12.6 | -0.7 | 21.6 | 8.1 | 83.8 | 77.4 | 98.6 | 69.1 | 96 |
| Cc1cc(OC(=O)c2c(C)cc(O)cc2O)cc(O)c1C(=O)O | -26.4 | -0.7 | 33.6 | 4.5 | -17.4 | 98.8 | 120 | 131 | 117 | 125 |
| Cc1cc2nc3c(=O)[nH]c(=O)nc-3n(CC(O)C(O)C(O)COP(=O)(O)O)c2cc1C (stereo not given) | -22.8 | 2.7 | 39.7 | 7.7 | 24.8 | 87.8 | 82.5 | 111 | 92.9 | 129 |
| COc1ccc2c(c1)OC1(O)COc3cc(OC)c(OC)cc3C1=C2 (stereo not given) | -0.4 | 4 | -6.1 | 1.3 | -13 | 115 | 114 | 96.7 | 95.3 | 134 |
| CCOC(N)=O | -12.1 | -46.8 | -12.4 | -0.3 | -7.8 | 102 | 93.8 | 106 | 85.8 | 106 |
| c1ccc2c(c1)CN1CCCC1=N2 | -4.9 | -9 | -3.7 | 18.9 | 34.1 | 129 | 110 | 121 | 104 | 150 |
| CC(=O)O[C@]1(C(C)=O)CC[C@H]2[C@@H]3C[C@H](C)C4=CC(=O)CC[C@]4(C)[C@H]3CC[C@@]21C | 0.9 | -26.8 | 0 | -8.4 | -14.9 | 130 | 83.4 | 83.1 | 119 | 84.4 |
| CC1(C)CC[C@]2(C(=O)O)CC[C@]3(C)C(=CC[C@@H]4[C@@]5(C)CC[C@H](O)[C@@](C)(CO)[C@@H]5CC[C@]43C)[C@@H]2C1 | -26.2 | -4.7 | -5.1 | 2.7 | -2.2 | 101 | 123 | 133 | 109 | 94.7 |
| CCCCN(CCCC)CCCOC(=O)c1ccc(N)cc1 | -23.4 | -7.1 | -8.1 | 39 | 4 | 100 | 132 | 84.3 | 138 | 79 |
| CN[C@@H]1[C@H](O[C@H]2[C@H](O[C@H]3[C@H](O)[C@@H](O)[C@H](NC(=N)N)[C@@H](O)[C@@H]3NC(=N)N)O[C@@H](C)[C@]2(O)CO)O[C@@H](CO)[C@H](O)[C@H]1O | 11.6 | -12.5 | -28.6 | -0.3 | -29.5 | 120 | 124 | 98.5 | 130 | 106 |
| CCCCC(CC)CCC(CC(C)C)OS(=O)(=O)O (stereo not given) | 6.9 | 15.5 | 17.4 | 2.1 | 15.9 | 135 | 117 | 116 | 142 | 96.9 |

Some of these compounds in order of formula weight, ascending.

| SMILES | loss of total cells (Human fetal astrocytes [1]; 1.39 µM) [%] | loss of total cells (Human fetal astrocytes [1]; 2.78 µM) [%] | loss of total cells (Human fetal astrocytes [1]; 5.56 µM) [%] | loss of total cells (Human fetal astrocytes [1]; 11.11 µM) [%] | loss of total cells (Human fetal astrocytes [1]; 22.22 µM) [%] | synaptosome phagocytosis (Human fetal astrocytes [2]; 1.39 µM) [%] | synaptosome phagocytosis (Human fetal astrocytes [2]; 2.78 µM) [%] | synaptosome phagocytosis (Human fetal astrocytes [2]; 5.56 µM) [%] | synaptosome phagocytosis (Human fetal astrocytes [2]; 11.11 µM) [%] | synaptosome phagocytosis (Human fetal astrocytes [2]; 22.22 µM) [%] |
| --- | --- | --- | --- | --- | --- | --- | --- | --- | --- | --- |
| Cc1cc(=O)oc2cc(O)c(O)cc12 | -40.2 | -12.6 | -24.9 | -0.7 | 8.1 | 98.5 | 90.4 | 84.2 | 104 | 59.1 |
| Cc1cc2nc3c(=O)[nH]c(=O)nc-3n(CC(O)C(O)C(O)COP(=O)(O)O)c2cc1C (stereo not given) | -22.8 | 2.7 | 39.7 | 7.7 | 24.8 | 87.8 | 82.5 | 111 | 92.9 | 129 |
| CN[C@@H]1[C@H](O[C@H]2[C@H](O[C@H]3[C@H](O)[C@@H](O)[C@H](NC(=N)N)[C@@H](O)[C@@H]3NC(=N)N)O[C@@H](C)[C@]2(O)CO)O[C@@H](CO)[C@H](O)[C@H]1O | 11.6 | -12.5 | -28.6 | -0.3 | -29.5 | 120 | 124 | 98.5 | 130 | 106 |

Carrying on.

| SMILES | loss of total cells (Human fetal astrocytes [1]; 1.39 µM) [%] | loss of total cells (Human fetal astrocytes [1]; 2.78 µM) [%] | loss of total cells (Human fetal astrocytes [1]; 5.56 µM) [%] | loss of total cells (Human fetal astrocytes [1]; 11.11 µM) [%] | loss of total cells (Human fetal astrocytes [1]; 22.22 µM) [%] | synaptosome phagocytosis (Human fetal astrocytes [2]; 1.39 µM) [%] | synaptosome phagocytosis (Human fetal astrocytes [2]; 2.78 µM) [%] | synaptosome phagocytosis (Human fetal astrocytes [2]; 5.56 µM) [%] | synaptosome phagocytosis (Human fetal astrocytes [2]; 11.11 µM) [%] | synaptosome phagocytosis (Human fetal astrocytes [2]; 22.22 µM) [%] |
| --- | --- | --- | --- | --- | --- | --- | --- | --- | --- | --- |
| O=C([O-])CN(CCN(CC(=O)[O-])CC(=O)O)CC(=O)[O-].[Na+].[Na+].[Na+] | -3.9 | -8.5 | 0 | -5.5 | 32.5 | 119 | 115 | 96.4 | 122 | 133 |
| C#C[C@]1(OC(C)=O)CC[C@H]2[C@@H]3CCC4=C[C@@H](OC(C)=O)CC[C@@H]4[C@H]3CC[C@@]21C | -18.5 | -3.3 | 7.6 | 1.3 | 6.3 | 111 | 104 | 101 | 60.3 | 70.5 |
| CN(C)CCOC(c1ccc(Cl)cc1)c1ccccn1 (stereo not given) | -21.6 | -10.7 | -8.1 | -38.3 | 6.2 | 103 | 109 | 85 | 99.9 | 89.3 |
| Cc1cc(=O)oc2c(O)c(O)ccc12 | -8.2 | 3.2 | 8.8 | 34.5 | 35.6 | 81.3 | 109 | 50.6 | 62.6 | 58.9 |
| CC(C)CCCC(C)N (stereo not given) | 19.9 | 12 | -16.8 | 32.3 | -16.7 | 153 | 128 | 103 | 92.5 | 57.7 |
| CC(=O)O[C@]1(C(C)=O)CC[C@H]2[C@@H]3C=C(Cl)C4=CC(=O)[C@@H]5C[C@@H]5[C@]4(C)[C@H]3CC[C@@]21C | -22.3 | -19.3 | -17.4 | -11.2 | 28.3 | 100 | 105 | 140 | 91.3 | 104 |
| Cc1ccccc1N1C(=O)c2cc(S(N)(=O)=O)c(Cl)cc2NC1C (stereo not given) | 38 | 9.3 | -4.6 | 45.2 | 18.1 | 143 | 83.8 | 119 | 118 | 140 |
| C=C[C@H]1CN2CC[C@H]1C[C@H]2[C@H](O)c1ccnc2ccc(OC)cc12 | -0.3 | -13.9 | -2.8 | -10.1 | -13.1 | 82.5 | 93.2 | 99.8 | 93.9 | 96.9 |
| C[N+]1(C)[C@@H]2CC[C@H]1C[C@@H](OC(=O)C(O)c1ccccc1)C2 (stereo not given in full) | -8 | -16.6 | -14.6 | -17 | 2.1 | 78.8 | 94.6 | 101 | 116 | 74.7 |
| Nc1nc(F)nc2c1ncn2[C@@H]1O[C@H](COP(=O)(O)O)[C@@H](O)[C@@H]1O | -41.1 | 23.8 | 2.5 | 30.5 | 4.7 | 101 | 139 | 108 | 103 | 108 |
| CC1NC(=O)NC1=O (stereo not given) | 23.6 | -8.6 | 38.9 | 45.8 | -3.3 | 93.5 | 74.7 | 142 | 141 | 81.6 |
| CC[C@H](C)C(=O)O[C@H]1C[C@@H](C)C=C2C=C[C@H](C)[C@H](CC[C@@H]3C[C@@H](O)CC(=O)O3)[C@H]21 | -19.9 | -10.7 | 9.9 | -21.1 | 0.6 | 110 | 82.1 | 100 | 108 | 85.1 |
| Nc1ccc(S(N)(=O)=O)cc1 | -2.7 | -11.9 | -18.8 | -1.4 | 14.3 | 122 | 100 | 131 | 115 | 104 |
| CCOC(=O)c1ccc(N)cc1 | -10.8 | 11.3 | 5.7 | -12.5 | -15.3 | 117 | 105 | 93.9 | 102 | 87.1 |
| N=C(N)N/N=C/c1c(Cl)cccc1Cl | -11 | -7.1 | -25.1 | -5.5 | 39.2 | 126 | 112 | 132 | 75.4 | 84.3 |
| C[C@]12CC[C@H]3C(=CCc4cc(O)ccc43)[C@@H]1CCC2=O | 5.6 | 3.1 | -3.5 | 1.4 | -7 | 87.1 | 97.8 | 109 | 103 | 107 |
| CC1=C2C(O)C(=O)OC3CC4C(C)(C)C(=O)C=C[C@]4(C)C(CC1)[C@]23C (stereo not given in full) | -12 | 5.3 | 30.5 | 40.6 | 4.1 | 73.4 | 61.8 | 143 | 123 | 136 |
